Binding data for one molecule are collected here from publication PMC11601937.

Results are given in words; binding and its absence hold for the method and conditions named. In cells and extracts the contact can be indirect. Some binding calls cover weakened binding; strength is not graded here.

The test addresses T1, stimulator of IFN genes (STING) (mouse (endogenous in BMDCs)) (UniProt Q3TBT3).
T1 sequence: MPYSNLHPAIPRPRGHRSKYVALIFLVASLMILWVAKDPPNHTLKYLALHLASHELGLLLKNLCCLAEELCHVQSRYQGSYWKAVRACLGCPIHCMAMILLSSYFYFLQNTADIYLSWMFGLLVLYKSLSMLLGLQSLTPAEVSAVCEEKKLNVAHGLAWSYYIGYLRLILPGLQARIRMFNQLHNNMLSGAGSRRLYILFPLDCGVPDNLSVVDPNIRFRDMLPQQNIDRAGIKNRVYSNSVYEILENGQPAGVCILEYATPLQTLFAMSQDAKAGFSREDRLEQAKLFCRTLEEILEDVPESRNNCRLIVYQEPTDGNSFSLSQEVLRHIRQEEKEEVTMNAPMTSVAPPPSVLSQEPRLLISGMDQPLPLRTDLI
Nature of the test: co-IP; anti-STING antibody on Dynabeads Protein G; lysates of WT mouse BMDCs stimulated with 2'3'-cGAMP, incubated 2 hours at room temperature; eluate detected by Western blotting. (Immunoblotting shows a protein as a band on a membrane.)

B1: cathepsin A (enzyme, UniProt P16675 24-474)
chain: APDQDEIDCLPGLAKQPSFRQYSGYLRASDSKHFHYWFVESQNDPKNSPVVLWLNGGPGCSSLDGLLTEHGPFLIQPDGVTLEYNPYAWNLIANVLYIESPAGVGFSYSDDKMYVTNDTEVAENNYEALKDFFRLFPEYKDNKLFLTGESYAGIYIPTLAVLVMQDPSMNLQGLAVGNGLASYEQNDNSLVYFAYYHGLLGNRLWTSLQTHCCAQNKCNFYDNKDPECVNNLLEVSRIVGKSGLNIYNLYAPCAGGVPGRHRYEDTLVVQDFGNIFTRLPLKRRFPEALMRSGDKVRLDPPCTNTTAPSNYLNNPYVRKALHIPESLPRWDMCNFLVNLQYRRLYQSMNSQYLKLLSSQKYQILLYNGDVDMACNFMGDEWFVDSLNQKMEVQRRPWLVDYGESGEQVAGFVKECSHITFLTIKGAGHMVPTDKPRAAFTMFSRFLNKEPY
With B1, the binding result was “binds”.
